Test results as given in paper PMC11312917.
These are yes or no findings as the source states them, for the method shown. Some results given as binding are weak or reduced against the parent protein; the word gives no strength. For some assays here: Where a sequence is shown, tags or fusion partners need not be part of it.

By UniProt entry, the sequences of proteins in these tests, tags left out. Residues count along the entry.
UniProt P06241, residues 149-246: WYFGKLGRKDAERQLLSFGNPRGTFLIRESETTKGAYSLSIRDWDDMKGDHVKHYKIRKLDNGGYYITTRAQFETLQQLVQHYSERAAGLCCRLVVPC
UniProt P07947, residues 158-255: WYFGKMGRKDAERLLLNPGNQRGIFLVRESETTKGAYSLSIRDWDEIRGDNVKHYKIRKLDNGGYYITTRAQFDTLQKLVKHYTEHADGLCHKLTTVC
UniProt O43639, residues 285-380: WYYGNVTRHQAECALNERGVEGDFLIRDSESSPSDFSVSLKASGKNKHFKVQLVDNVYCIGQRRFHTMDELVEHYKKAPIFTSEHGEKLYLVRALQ
UniProt P00519, residues 127-217: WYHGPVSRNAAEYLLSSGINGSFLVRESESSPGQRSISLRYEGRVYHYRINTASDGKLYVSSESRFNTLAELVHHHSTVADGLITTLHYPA

What was measured:
Test in all cases: peptide or protein array; GST-fused domains (122 SH2; 70 PTB, PH, HYB, C2) arrayed on nitrocellulose-coated glass slides; probed with biotinylated peptides, detected with Cy3-labeled streptavidin; both purified
[1] = target: Fyn SH2 domain (GST fusion on the protein domain array) (UniProt P06241)
[2] = target: Yes SH2 domain (GST fusion on the protein domain array) (UniProt P07947)
[3] = target: Nck2 domain (GST fusion on the protein domain array) (UniProt O43639)
[4] = target: T1, Abl2 SH2 domain (GST fusion on the protein domain array) (UniProt P42684)
T1 sequence: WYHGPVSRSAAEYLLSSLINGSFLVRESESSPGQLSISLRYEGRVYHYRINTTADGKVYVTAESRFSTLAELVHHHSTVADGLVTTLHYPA

[5] = target: Abl1 SH2 domain (GST fusion on the protein domain array) (UniProt P00519)

- binding [1]: binds
- binding [2]: binds
- binding [3]: binds
- binding [4]: binds
- binding [5]: binds
B1: phosphorylated Pdlim5 DUF-domain peptide IVERYTEF[pY]…-biotin (peptide)
peptide: IVERYTEFYHVPTHSDASK
modifications: phosphotyrosine at Y251 (ninth residue of the peptide); biotin at the C-terminus
